Source: the supplement of paper PMC11732987, “Enantioselective OTUD7B fragment discovery through chemoproteomics screening and high-throughput optimisation” (Communications Chemistry, 2025)
This is one part of the list. The data scatter; read single values as rough.

By UniProt entry, the sequences of proteins in these tests, tags left out. Where a name states a change or a piece, a line headed by the entry shows the natural chain unless it says otherwise. Residues count along the entry.
UniProt Q9NPR2: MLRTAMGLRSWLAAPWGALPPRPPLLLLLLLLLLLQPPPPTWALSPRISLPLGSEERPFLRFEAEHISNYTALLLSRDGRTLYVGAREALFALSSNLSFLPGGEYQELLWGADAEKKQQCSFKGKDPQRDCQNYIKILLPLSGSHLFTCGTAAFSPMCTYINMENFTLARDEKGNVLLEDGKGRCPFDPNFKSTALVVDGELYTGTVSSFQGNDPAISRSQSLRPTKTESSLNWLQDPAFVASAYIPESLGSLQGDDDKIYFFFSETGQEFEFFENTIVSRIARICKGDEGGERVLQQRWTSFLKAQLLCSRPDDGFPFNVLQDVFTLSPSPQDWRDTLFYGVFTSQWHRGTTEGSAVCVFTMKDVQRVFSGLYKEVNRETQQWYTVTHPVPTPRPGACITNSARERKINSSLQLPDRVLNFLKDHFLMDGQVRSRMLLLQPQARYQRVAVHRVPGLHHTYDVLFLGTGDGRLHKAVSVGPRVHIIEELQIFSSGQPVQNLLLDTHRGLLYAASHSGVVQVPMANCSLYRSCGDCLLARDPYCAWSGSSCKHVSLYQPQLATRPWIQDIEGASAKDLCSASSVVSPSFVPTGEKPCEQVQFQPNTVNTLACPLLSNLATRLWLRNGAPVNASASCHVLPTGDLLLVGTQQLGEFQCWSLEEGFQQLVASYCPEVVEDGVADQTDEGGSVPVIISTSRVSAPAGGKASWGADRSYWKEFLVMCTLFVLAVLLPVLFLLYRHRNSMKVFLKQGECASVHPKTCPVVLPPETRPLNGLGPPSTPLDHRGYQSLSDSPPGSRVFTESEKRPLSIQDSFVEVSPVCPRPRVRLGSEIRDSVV
UniProt Q9NP50: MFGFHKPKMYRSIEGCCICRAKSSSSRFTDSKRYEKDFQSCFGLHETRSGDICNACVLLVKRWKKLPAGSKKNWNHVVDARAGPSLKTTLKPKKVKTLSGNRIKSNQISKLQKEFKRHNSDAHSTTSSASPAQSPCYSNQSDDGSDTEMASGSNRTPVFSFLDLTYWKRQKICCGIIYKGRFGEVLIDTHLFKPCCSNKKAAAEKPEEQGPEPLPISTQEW
UniProt Q9HB40: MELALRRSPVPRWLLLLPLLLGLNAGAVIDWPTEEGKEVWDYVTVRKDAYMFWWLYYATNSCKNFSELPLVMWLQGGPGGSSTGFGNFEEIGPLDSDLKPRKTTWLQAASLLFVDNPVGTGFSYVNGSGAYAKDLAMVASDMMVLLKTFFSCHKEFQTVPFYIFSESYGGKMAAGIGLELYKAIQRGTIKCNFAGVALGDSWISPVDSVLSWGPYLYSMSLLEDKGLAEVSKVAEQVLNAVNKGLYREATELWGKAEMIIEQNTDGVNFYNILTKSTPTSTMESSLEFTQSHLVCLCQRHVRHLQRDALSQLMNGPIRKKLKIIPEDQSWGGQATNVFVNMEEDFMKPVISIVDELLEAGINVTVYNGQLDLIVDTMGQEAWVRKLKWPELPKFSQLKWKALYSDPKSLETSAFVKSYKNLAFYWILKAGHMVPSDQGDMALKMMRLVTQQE
UniProt Q562F6: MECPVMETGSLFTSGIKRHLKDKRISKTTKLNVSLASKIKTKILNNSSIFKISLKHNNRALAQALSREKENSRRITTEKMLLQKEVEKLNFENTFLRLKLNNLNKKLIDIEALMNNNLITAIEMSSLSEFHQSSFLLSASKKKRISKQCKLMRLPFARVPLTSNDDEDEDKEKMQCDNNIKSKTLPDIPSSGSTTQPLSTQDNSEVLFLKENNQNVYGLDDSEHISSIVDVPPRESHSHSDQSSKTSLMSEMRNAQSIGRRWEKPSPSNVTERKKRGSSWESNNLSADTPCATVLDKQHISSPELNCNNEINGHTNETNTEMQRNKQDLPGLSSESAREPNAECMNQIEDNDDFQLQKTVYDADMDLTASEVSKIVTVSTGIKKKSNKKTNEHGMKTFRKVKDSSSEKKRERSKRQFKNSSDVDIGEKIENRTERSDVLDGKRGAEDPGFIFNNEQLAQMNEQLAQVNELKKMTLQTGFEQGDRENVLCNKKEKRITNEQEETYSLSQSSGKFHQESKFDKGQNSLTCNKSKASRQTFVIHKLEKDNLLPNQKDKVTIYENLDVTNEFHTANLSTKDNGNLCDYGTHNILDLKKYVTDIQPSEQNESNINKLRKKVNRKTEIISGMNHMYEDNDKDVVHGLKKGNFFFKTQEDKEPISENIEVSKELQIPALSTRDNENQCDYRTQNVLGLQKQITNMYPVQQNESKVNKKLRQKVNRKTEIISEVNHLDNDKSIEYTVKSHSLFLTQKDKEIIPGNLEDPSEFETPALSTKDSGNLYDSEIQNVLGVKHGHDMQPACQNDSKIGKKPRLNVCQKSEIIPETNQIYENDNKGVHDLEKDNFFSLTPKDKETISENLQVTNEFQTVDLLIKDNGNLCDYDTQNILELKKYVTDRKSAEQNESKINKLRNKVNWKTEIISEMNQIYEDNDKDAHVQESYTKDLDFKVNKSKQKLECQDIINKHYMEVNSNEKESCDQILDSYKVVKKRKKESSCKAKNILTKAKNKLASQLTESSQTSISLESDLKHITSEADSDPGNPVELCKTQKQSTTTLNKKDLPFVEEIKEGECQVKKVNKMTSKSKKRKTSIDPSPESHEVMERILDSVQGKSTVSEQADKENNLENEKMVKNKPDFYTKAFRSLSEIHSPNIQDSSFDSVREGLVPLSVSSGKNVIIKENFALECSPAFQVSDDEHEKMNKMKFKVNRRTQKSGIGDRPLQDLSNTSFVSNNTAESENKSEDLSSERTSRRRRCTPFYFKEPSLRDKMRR
UniProt O43765: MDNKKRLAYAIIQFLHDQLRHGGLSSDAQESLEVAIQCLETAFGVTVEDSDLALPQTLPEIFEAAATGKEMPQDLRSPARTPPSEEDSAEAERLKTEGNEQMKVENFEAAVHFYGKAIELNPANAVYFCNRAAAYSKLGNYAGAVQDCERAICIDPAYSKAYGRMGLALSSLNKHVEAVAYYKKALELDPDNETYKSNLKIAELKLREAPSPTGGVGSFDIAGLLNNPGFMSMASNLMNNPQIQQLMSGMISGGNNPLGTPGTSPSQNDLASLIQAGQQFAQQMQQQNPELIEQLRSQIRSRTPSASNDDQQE
UniProt Q96FV2: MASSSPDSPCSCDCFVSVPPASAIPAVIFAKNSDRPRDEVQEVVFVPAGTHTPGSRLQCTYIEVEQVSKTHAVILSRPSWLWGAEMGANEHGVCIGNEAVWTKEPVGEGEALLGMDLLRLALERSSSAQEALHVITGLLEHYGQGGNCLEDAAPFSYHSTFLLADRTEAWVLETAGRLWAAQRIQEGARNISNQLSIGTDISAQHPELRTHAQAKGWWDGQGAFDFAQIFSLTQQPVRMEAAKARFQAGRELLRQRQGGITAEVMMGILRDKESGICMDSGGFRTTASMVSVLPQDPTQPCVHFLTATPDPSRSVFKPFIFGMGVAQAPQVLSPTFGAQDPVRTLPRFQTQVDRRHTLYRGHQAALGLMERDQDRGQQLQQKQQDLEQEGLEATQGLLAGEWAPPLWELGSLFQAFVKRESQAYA
UniProt Q96I15: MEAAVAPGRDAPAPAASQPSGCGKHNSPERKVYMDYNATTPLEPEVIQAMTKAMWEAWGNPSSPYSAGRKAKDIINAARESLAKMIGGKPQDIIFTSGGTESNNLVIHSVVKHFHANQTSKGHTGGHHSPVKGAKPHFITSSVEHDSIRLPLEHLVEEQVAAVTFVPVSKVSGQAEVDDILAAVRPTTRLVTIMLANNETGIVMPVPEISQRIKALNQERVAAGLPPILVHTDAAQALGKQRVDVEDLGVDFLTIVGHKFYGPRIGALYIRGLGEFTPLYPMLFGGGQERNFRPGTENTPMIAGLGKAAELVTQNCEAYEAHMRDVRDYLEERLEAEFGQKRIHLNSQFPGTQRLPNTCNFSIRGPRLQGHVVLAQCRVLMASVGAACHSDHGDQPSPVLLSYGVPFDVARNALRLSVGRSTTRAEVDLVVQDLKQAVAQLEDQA
UniProt Q93073, 880-900: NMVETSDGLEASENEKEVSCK
UniProt Q9UQR0: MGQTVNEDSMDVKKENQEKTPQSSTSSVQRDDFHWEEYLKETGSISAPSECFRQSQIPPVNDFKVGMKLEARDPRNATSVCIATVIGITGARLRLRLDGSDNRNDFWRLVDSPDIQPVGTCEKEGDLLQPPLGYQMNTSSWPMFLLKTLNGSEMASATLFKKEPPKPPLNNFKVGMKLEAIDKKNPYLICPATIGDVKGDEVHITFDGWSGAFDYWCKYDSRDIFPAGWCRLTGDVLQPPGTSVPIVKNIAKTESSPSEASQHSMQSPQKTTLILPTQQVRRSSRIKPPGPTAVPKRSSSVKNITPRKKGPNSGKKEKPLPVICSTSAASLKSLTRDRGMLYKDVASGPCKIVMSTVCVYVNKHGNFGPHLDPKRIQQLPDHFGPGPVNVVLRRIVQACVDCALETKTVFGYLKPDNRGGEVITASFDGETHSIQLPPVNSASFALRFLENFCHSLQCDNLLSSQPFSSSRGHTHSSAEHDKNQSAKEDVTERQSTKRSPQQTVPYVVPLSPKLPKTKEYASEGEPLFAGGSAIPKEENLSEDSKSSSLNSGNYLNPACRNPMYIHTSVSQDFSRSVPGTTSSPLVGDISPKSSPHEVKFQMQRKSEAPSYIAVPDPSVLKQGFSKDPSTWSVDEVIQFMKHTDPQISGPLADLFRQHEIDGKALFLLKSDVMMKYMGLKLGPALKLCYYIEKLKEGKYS
UniProt Q96T21, 274-293: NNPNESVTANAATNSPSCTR
UniProt Q9Y6P5: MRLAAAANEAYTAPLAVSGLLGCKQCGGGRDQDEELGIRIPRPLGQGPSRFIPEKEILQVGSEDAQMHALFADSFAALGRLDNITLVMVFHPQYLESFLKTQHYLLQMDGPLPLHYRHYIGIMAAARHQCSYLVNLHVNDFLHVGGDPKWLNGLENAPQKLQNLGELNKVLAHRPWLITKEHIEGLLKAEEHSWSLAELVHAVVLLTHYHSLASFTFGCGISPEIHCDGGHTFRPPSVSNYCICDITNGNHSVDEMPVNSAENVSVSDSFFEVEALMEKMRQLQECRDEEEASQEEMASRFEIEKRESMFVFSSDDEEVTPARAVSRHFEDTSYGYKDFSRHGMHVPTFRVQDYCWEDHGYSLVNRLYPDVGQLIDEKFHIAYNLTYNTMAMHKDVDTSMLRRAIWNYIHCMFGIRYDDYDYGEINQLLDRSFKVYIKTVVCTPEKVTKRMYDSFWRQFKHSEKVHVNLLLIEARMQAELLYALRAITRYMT
UniProt O00560, 230-250: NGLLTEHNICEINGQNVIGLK
UniProt O94885: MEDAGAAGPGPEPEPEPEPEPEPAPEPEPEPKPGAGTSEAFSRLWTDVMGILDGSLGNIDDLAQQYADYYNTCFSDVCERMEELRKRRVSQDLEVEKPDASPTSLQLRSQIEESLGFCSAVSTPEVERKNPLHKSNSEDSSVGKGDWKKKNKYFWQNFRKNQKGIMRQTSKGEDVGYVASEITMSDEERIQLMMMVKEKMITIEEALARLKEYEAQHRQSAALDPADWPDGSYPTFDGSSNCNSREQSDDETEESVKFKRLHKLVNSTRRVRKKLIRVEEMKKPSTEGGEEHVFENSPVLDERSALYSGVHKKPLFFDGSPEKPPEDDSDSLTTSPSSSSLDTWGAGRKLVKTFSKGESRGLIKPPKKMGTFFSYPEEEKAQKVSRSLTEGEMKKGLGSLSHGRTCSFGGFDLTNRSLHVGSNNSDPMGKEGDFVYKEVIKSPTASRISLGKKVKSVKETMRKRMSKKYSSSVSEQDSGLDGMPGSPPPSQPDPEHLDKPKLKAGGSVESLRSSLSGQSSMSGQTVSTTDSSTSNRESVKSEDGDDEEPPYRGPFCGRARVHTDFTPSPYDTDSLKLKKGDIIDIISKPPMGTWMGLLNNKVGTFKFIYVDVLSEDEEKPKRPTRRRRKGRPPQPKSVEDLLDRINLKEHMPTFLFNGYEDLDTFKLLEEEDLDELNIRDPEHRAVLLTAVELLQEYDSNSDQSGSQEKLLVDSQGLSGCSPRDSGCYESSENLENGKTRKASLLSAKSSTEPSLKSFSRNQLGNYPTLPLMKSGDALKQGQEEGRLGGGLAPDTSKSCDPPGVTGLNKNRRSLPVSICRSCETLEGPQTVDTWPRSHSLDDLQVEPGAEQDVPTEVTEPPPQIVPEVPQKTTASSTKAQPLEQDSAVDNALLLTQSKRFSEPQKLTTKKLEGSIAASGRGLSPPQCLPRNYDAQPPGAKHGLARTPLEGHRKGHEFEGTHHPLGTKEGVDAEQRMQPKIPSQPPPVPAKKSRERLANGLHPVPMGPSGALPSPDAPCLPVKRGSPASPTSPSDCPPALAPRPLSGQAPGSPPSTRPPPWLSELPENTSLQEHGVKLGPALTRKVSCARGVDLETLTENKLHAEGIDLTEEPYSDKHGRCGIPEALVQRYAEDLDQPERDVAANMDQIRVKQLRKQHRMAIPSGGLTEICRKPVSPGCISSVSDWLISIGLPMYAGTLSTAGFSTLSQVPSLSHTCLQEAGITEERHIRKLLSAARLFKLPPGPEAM

Compound: ClCC(=O)N[C@@H]1CCCc2ccccc12
Assay: log2 mean competition ratio of IA-DTB cysteine labelling (DMSO/compound) (log2 ratio); higher = stronger cysteine engagement by compound
Settings: 50 µM; treatment time: 4 h; cell line lysate: HEK293T
Experimental: (§1)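 IA-DTB competitive cysteine chemoproteomics in HEK293T RIPA lysate. Lysates were treated with compound 29 or 30 at 50 or 200 µM for 4 h, then IA-DTB (500 µM, 1 h), trypsin-digested, NeutrAvidin-enriched and analysed by diaPASEF. Competition ratio = intensity DMSO / intensity compound (n=4 treated, n=64 DMSO); binding: mean log2 CR ≥ 1 and p ≤ 0.05 plus QC filters. Target is the cysteine site.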

Row | Target | log2 mean competition ratio
1 | SHPK C105 (UniProt Q9UHJ6) | -0.277
2 | SF1 C171 | -0.252
3 | SCYL3 C280 (UniProt Q8IZE3) | 0.0304
4 | SETD2 C736 (UniProt Q9BYW2) | -0.41
5 | SEPTIN7 C204 (UniProt Q16181) | -0.108
6 | SEPHS1 C71 (UniProt P49903) | -0.0921
7 | SEMA4B C753 (UniProt Q9NPR2) | 0.026
8 | SINHCAF C41 (UniProt Q9NP50) | 0.166
9 | SCPEP1 C152 (UniProt Q9HB40) | 0.285
10 | SHMT2 C241 | -0.0765
11 | SEH1L C30 (UniProt Q96EE3) | -0.186
12 | SGO2 C681 (UniProt Q562F6) | -0.295
13 | SH3BP4 C372 (UniProt Q9P0V3) | 0.173
14 | SGTA C129 (UniProt O43765) | 0.0636
15 | SCRN2 C277 (UniProt Q96FV2) | 0.182
16 | SCLY C22 (UniProt Q96I15) | -0.0695
17 | SECISBP2L C899 (UniProt Q93073) | -0.0138
18 | SEC13 C299 (UniProt P55735) | -0.401
19 | SHPK C132 (UniProt Q9UHJ6) | -0.13

Row | Target | log2 mean competition ratio
20 | SEPTIN11 C300 (UniProt Q9NVA2) | -0.335
21 | SERPINB6 C370 | 0.148
22 | SENP6 C291 (UniProt Q9GZR1) | -0.155
23 | SBNO1 C445 (UniProt A3KN83) | 0.255
24 | SCML2 C350 (UniProt Q9UQR0) | 0.159
25 | SELENOO C219 (UniProt Q9BVL4) | 0.159
26 | SECISBP2 C291 (UniProt Q96T21) | -0.131
27 | SH3PXD2A C995 (UniProt Q5TCZ1) | 0.0951
28 | SEC62 C82 (UniProt Q99442) | -0.28
29 | SFMBT1 C511 | -0.132
30 | SESN1 C355 (UniProt Q9Y6P5) | 0.256
31 | SAT2 C14 (UniProt Q96F10) | -0.264
32 | SDCBP C239 (UniProt O00560) | 0.0827
33 | SENP7 C980 (UniProt Q9BQF6) | -0.127
34 | SASH1 C927 (UniProt O94885) | 0.303
35 | SH3BP4 C833 (UniProt Q9P0V3) | 0.138
36 | SALL3 C603 | 0.0133
37 | SIPA1L1 C1037 (UniProt O43166) | 0.0622

Same assay, conditions: 200 µM; treatment time: 4 h; cell line lysate: HEK293T

Row | Target | log2 mean competition ratio
38 | SHPK C105 (UniProt Q9UHJ6) | 0.029
39 | SF1 C171 | 0.293
40 | SCYL3 C280 (UniProt Q8IZE3) | -0.207
41 | SETD2 C736 (UniProt Q9BYW2) | 0.711
42 | SEPTIN7 C204 (UniProt Q16181) | -0.49
43 | SEPHS1 C71 (UniProt P49903) | 0.0587
44 | SEMA4B C753 (UniProt Q9NPR2) | 0.00485
45 | SINHCAF C41 (UniProt Q9NP50) | 0.19
46 | SCPEP1 C152 (UniProt Q9HB40) | -0.373
47 | SHMT2 C241 | 0.151
48 | SEH1L C30 (UniProt Q96EE3) | 0.297
49 | SGO2 C681 (UniProt Q562F6) | 0.272
50 | SH3BP4 C372 (UniProt Q9P0V3) | -0.00476
51 | SGTA C129 (UniProt O43765) | -0.0591
52 | SCRN2 C277 (UniProt Q96FV2) | -0.125
53 | SCLY C22 (UniProt Q96I15) | 0.115
54 | SECISBP2L C899 (UniProt Q93073) | -0.173
55 | SEC13 C299 (UniProt P55735) | -0.294
56 | SHPK C132 (UniProt Q9UHJ6) | -0.0776

Row | Target | log2 mean competition ratio
57 | SEPTIN11 C300 (UniProt Q9NVA2) | -0.191
58 | SERPINB6 C370 | -0.281
59 | SENP6 C291 (UniProt Q9GZR1) | 0.0221
60 | SBNO1 C445 (UniProt A3KN83) | -0.191
61 | SCML2 C350 (UniProt Q9UQR0) | -0.195
62 | SELENOO C219 (UniProt Q9BVL4) | 0.00184
63 | SECISBP2 C291 (UniProt Q96T21) | 0.116
64 | SH3PXD2A C995 (UniProt Q5TCZ1) | -0.0591
65 | SEC62 C82 (UniProt Q99442) | -0.108
66 | SFMBT1 C511 | 0.0798
67 | SESN1 C355 (UniProt Q9Y6P5) | 0.0464
68 | SAT2 C14 (UniProt Q96F10) | 0.346
69 | SDCBP C239 (UniProt O00560) | -0.259
70 | SENP7 C980 (UniProt Q9BQF6) | 0.164
71 | SASH1 C927 (UniProt O94885) | -0.242
72 | SH3BP4 C833 (UniProt Q9P0V3) | 0.0245
73 | SALL3 C603 | -0.278
74 | SIPA1L1 C1037 (UniProt O43166) | 0.0795

Compound: ClCC(=O)N[C@H]1CCCc2ccccc12
Assay: as above
Settings: 50 µM; treatment time: 4 h; cell line lysate: HEK293T
Experimental: as §1

Row | Target | log2 mean competition ratio
75 | SHPK C105 (UniProt Q9UHJ6) | 0.111
76 | SF1 C171 | -0.319
77 | SCYL3 C280 (UniProt Q8IZE3) | -0.459
78 | SETD2 C736 (UniProt Q9BYW2) | -0.0671
79 | SEPTIN7 C204 (UniProt Q16181) | 0.283
80 | SEPHS1 C71 (UniProt P49903) | -0.315
81 | SEMA4B C753 (UniProt Q9NPR2) | 0.0362
82 | SINHCAF C41 (UniProt Q9NP50) | -0.0165
83 | SCPEP1 C152 (UniProt Q9HB40) | 0.052
84 | SHMT2 C241 | -0.154
85 | SEH1L C30 (UniProt Q96EE3) | -0.42
86 | SGO2 C681 (UniProt Q562F6) | -0.207
87 | SH3BP4 C372 (UniProt Q9P0V3) | -0.026
88 | SGTA C129 (UniProt O43765) | 0.0807
89 | SCRN2 C277 (UniProt Q96FV2) | -0.405
90 | SCLY C22 (UniProt Q96I15) | -0.146
91 | SECISBP2L C899 (UniProt Q93073) | 0.689
92 | SEC13 C299 (UniProt P55735) | -0.117
93 | SHPK C132 (UniProt Q9UHJ6) | -0.201

Row | Target | log2 mean competition ratio
94 | SEPTIN11 C300 (UniProt Q9NVA2) | -0.236
95 | SERPINB6 C370 | 0.345
96 | SENP6 C291 (UniProt Q9GZR1) | -0.621
97 | SBNO1 C445 (UniProt A3KN83) | 0.254
98 | SCML2 C350 (UniProt Q9UQR0) | -0.147
99 | SELENOO C219 (UniProt Q9BVL4) | 0.0546
100 | SECISBP2 C291 (UniProt Q96T21) | 0.114
101 | SH3PXD2A C995 (UniProt Q5TCZ1) | 0.0966
102 | SEC62 C82 (UniProt Q99442) | 0.0287
103 | SFMBT1 C511 | 0.0626
104 | SESN1 C355 (UniProt Q9Y6P5) | -0.269
105 | SAT2 C14 (UniProt Q96F10) | -0.113
106 | SDCBP C239 (UniProt O00560) | -0.345
107 | SENP7 C980 (UniProt Q9BQF6) | -0.22
108 | SASH1 C927 (UniProt O94885) | 0.308
109 | SH3BP4 C833 (UniProt Q9P0V3) | 0.627
110 | SALL3 C603 | 0.331
111 | SIPA1L1 C1037 (UniProt O43166) | -0.101
